# Patent US20030129193A1 (priority 2001, published 2003)
# Results are given in words; binding and its absence hold for the method and conditions named.
# T1: recombinant, depyrogenated truncated Tissue Factor (amino acids 1-219), secreted into the periplasm of E. coli from vector pswc7 (human), P13726
# T1 chain: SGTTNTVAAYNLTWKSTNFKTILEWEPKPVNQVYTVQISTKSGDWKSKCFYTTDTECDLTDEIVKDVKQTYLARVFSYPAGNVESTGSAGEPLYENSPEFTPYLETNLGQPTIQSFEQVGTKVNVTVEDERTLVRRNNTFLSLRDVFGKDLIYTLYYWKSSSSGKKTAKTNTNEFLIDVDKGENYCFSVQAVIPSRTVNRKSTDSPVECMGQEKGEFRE
# B1: recombinant, depyrogenated truncated Tissue Factor (amino acids 1-219), secreted into the periplasm of E. coli from vector pswc7, P13726 33-251 (receptor, human, UniProt P13726 33-251, looked up)
# chain: T1 chain
# Molecular target: T1, recombinant, depyrogenated truncated …
# Experiment: SPR (Biacore), CM5 chip; tTF immobilised by amine coupling (700 RU) or captured by anti-TF antibody (300 RU); tTF injected alone or after preincubation with LPS 10 µg/ml
# Settings: remark: other sources report otherwise
binder,measurement,value
B1,binding,no binding (tested: 30 pg/ml (so in the source))
